Assay results from patent US20110129826A1.

Target: T1, BRCA1-associated protein (BRAP) from HeLa cell extract (UniProt Q7Z569)
T1 sequence (looked up): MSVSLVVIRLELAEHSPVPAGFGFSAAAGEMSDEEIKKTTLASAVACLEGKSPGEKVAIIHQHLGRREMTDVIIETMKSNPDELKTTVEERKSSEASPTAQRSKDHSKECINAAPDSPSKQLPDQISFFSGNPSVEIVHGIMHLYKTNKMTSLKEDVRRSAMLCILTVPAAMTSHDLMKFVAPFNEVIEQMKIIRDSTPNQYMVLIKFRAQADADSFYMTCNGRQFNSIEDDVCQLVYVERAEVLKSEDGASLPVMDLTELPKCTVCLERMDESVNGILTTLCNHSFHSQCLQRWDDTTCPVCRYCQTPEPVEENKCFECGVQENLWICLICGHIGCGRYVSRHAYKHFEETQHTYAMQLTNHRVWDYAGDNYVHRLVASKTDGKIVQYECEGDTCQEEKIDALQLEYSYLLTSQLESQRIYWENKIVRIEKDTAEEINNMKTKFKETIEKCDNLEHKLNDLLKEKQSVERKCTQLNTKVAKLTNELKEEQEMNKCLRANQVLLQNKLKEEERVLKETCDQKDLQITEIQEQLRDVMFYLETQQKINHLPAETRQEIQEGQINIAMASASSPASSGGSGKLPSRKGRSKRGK
Assay: tandem affinity purification from transfected HeLa cells, MALDI/TOF mass spectrometry

binding: binds
B1: galectin-2 expressed from the galectin-2 TAP vector (Myc tag at the N-terminus, TAP tag at the C-terminus) (protein, UniProt P05162 1-132, looked up, not shown: small tags and cut ends)
chain: MTGELEVKNMDMKPGSTLKITGSIADGTDGFVINLGQGTDKLNLHFNPRFSESTIVCNSLDGSNWGQEQREDHLCFSPGSEVKFTVTFESDKFKVKLPDGHELTFPNRLGHSHLSYLSVRGGFNMSSFKLKE

No constants are given. Whether binding was seen depends on the method and setting. In cells and extracts the contact can be indirect. Here binding means that the protein was enriched with, or labelled near, the bait; the list need not be complete. Tags and fused reporters may be left off the sequences shown.
